According to US11771736B2 (Mainline Biosciences (Shanghai) Co., Ltd., priority 2017, dated 2023):
Bridge positions count the residues as written; N and C are the ends. Square brackets hold non-standard residues; d marks the D form. * marks the point of attachment. 2Nal = N[C@@H](Cc1ccc2ccccc2c1)C(=O)O; Lys(iPr) = CC(C)NCCCC[C@H](N)C(=O)O; hCys = N[C@@H](CCS)C(=O)O; Bz = O=C(c1ccccc1)*; Mpa = O=C(O)CCS

How the values were obtained:
[1] = general procedure: Fmoc solid-phase peptide synthesis; 2-Chloro-trityl chloride resin; DCC/HOBt; settings: whole synthesis, Analytical HPLC, scale of the general procedure 3.6 grams of Rink AM resin, 4.0 grams of 2-chlorotrityl chlo, acetate salt
[2] = general procedure: Fmoc solid-phase peptide synthesis; 2-chlorotrityl chloride resin; DCC/HOBt; settings: whole synthesis, Analytical HPLC, scale of the general procedure 3.6 grams of Rink AM resin, 4.0 grams of 2-chlorotrityl chlo, acetate salt
[3] = general procedure: Fmoc solid-phase peptide synthesis; Rink AM resin; 2-chlorotrityl chloride resin (0.4 mmole/gram) for Examples 6 and 7; DCC/HOBt; settings: whole synthesis, Analytical HPLC, scale of the general procedure 3.6 grams of Rink AM resin, 4.0 grams of 2-chlorotrityl chlo, acetate salt (from TFA salt)
[4] = general procedure: Fmoc solid-phase peptide synthesis; Rink AM resin; DCC/HOBt; settings: whole synthesis, Analytical HPLC, scale of the general procedure 3.6 grams of Rink AM resin, 4.0 grams of 2-chlorotrityl chlo, acetate salt

## Benzoyl-cyclo[hCys-Tyr-Lys(iPr)-(D-Arg)-2Nal-Gly-Cys]-Lys(iPr)-Gly-NH(Et)
[1]
  final HPLC purity: 97.59%

## cyclo[Mpa-Tyr-Lys(iPr)-(D-Arg)-2Nal-Gly-Cys]-Lys(iPr)-Lys(lauroyl)-NH(Et)
[2]
  final HPLC purity: 95.42%
[3]
  final HPLC purity: 96.42%

## cyclo[Mpa-Tyr-Lys(iPr)-(D-Arg)-2Nal-Gly-Cys]-Lys(iPr)-Lys(Ac)-NH(Et)
[2]
  final HPLC purity: 95.50%

## [Mpa]YR[dR][2Nal]GCRG[dF]G-NH2 (disulfide 1-7)
[4]
  final HPLC purity: 96.64%
[3]
  final HPLC purity: 96.64%

## Phenylacetyl-cyclo[hCys-Tyr-Lys(iPr)-(D-Arg)-2Nal-Gly-Cys]-Lys(iPr)-Gly-NH2
[4]
  final HPLC purity: 95.67%

## Bz-CY[Lys(iPr)][dR][2Nal]GC[Lys(iPr)]G-NH2 (disulfide 1-7)
[4]
  final HPLC purity: 97.04%

## Bz-CY[Lys(iPr)][dR][2Nal]G[hCys][Lys(iPr)]G-NH2 (disulfide 1-7)
[4]
  final HPLC purity: 95.64%

## Bz-[hCys]Y[Lys(iPr)][dR][2Nal]GC[Lys(iPr)]G-NH2 (disulfide 1-7)
[4]
  final HPLC purity: 95.98%

## Ac-cyclo[hCys-Tyr-Lys(iPr)-(D-Arg)-2Nal-Gly-Cys]-Lys(iPr)-Gly-NH(Et)
[1]
  final HPLC purity: 95.03%

## [Mpa]RYR[2Nal]GCRG[dF]G-NH2 (disulfide 1-7)
[4]
  final HPLC purity: 96.05%
[3]
  final HPLC purity: 96.05%

## cyclo[Mpa-Tyr-Lys(iPr)-(D-Arg)-2Nal-Gly-Cys]-Lys(iPr)-Lys(palmitoyl)-NH(Et)
[2]
  final HPLC purity: 95.31%
